Test results published in the supplement of paper PMC3334620.
Whole data set: some 33,000 sequences, median “E-score (-0.5 to 0.5)” near -0.0059, cut for the highest 2% near 0.26. Some of the results follow.

What follows are sequences tested against T1, Cin5 (UniProt P40917) (assay: PBM E-score (8-mer binding enrichment) (E-score (-0.5 to 0.5)); higher = stronger / more preferred TF binding). Conditions: protein concentration: 100 nM; construct: GST-full length.
T1 sequence: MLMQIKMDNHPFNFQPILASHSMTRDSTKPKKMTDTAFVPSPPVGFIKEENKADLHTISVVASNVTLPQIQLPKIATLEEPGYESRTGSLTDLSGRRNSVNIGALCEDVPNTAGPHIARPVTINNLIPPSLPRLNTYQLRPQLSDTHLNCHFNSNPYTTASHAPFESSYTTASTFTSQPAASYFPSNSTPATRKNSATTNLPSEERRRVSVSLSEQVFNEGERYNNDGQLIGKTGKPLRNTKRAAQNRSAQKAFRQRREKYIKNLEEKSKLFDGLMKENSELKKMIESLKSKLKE
Outline: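 E-scores (a modified Wilcoxon-Mann-Whitney statistic) were assigned by the Universal PBM Analysis Suite to every ungapped eight-base word pooled with its reverse complement. The input came from universal all-10-mer Agilent arrays made double-stranded by primer extension and probed with GST-tagged yeast transcription factors at about 100-200 nM. Fluorescent anti-GST detected bound protein, and masliner normalised the scans.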

Sequence	PBM E-score
ATACTCAC	0.117
GAGTAAGC	0.251
GATTAGAC	0.115
GCACATGC	-0.064
GGTGCTAC	-0.0898
AGCGGACC	-0.159
CCGGATTA	0.243
AACGAATC	0.0764
TACATGCA	0.12
ACTTTGCA	0.127
ACCGATCA	0.0485
CCAGCCTA	-0.0642
CCGTGTTC	0.21
TACTCAAA	0.0621
ATTGGTAC	0.0477
ACCCAACT	0.11
AATGCTCG	0.0601
CAAAAACA	-0.00679
AACCCCGC	0.0377
CAATAAAC	0.118
AATTGTTA	0.165
CCCTTCCA	-0.115
GATTGAAC	0.029
ACGATATC	0.105
ACATATCC	0.101

Sequence	PBM E-score
TAGATGCA	0.0348
GAGCCTCC	-0.2
ACTGTTCC	-0.0245
ACGAGAAA	0.174
AAGTCCCG	-0.0962
AAATTGTC	0.23
AGCTTTGC	-0.121
AAGTTAAT	0.105
ACGTTACA	0.13
AACAGCGG	0.0283
CGGGCTAG	-0.107
GGTGGAAC	-0.102
TCTCGAAA	-0.0342
CACTAGAG	-0.0745
AGTCGCGG	-0.267
TGCGGAAA	0.103
ACGGACGT	-0.108
GATGAGCA	0.104
CAATTGCA	-0.0549
AATAGAAA	0.0988
CACAAAGC	0.0138
GTCCGCAC	0.0555
ATGTGCGC	0.0703
CGGCTTCA	0.091
CAGTGGAG	0.0978

Sequence	PBM E-score
CGCTCGGC	-0.134
CCCGACCA	0.00921
AGGCGTAG	-0.174
ACAAGCAG	-0.0293
CACTTGCG	-0.0493
CCTCTCAA	-0.0128
GGTTCGAA	0.0786
CAGTGAGG	-0.185
CCACCTTC	-0.185
CCCCGCAA	0.116
AGAGTTTC	-0.285
GAACCCTA	-0.0872
CAGGAGTA	-0.0466
CGGATTTC	0.00244
TCAGGGGA	-0.0109
AAATCTCG	0.0688
AGTCCCAT	-0.127
TCTGTCCA	0.00147
CTTCATCC	0.00701
AGAATCAT	0.0959
CTCGAGCA	0.117
ACAAGTGC	-0.0687
CGGCCTTA	0.0192
AGCGATGC	-0.176
GCGTGGCC	-0.253

Copied from above (six entries):
Sequence	PBM E-score
AAATCTCG	0.0688
AGTCCCAT	-0.127
TCTGTCCA	0.00147
CTTCATCC	0.00701
AGAATCAT	0.0959
CTCGAGCA	0.117

Later entries:

Sequence	PBM E-score
ATTGGTAA	0.193
ACAGATGA	0.0554
AACACCCT	-0.13
ACGGGGAA	-0.00505
AAACCAGA	0.0316
GGACTGAA	-0.0795
CCAGTGTC	-0.0197
AGCGGTTC	-0.00708
ACACCTAA	0.0735
ACGGAATG	0.142
GCAAACTA	0.077
CAGAAACA	-0.00473
AATCCGAT	0.24
ATCTCTGA	-0.116
CCTAACCG	-0.128
GCTCTTCC	-0.26
AAACCGAC	0.142
CAAAACGG	0.00719
ACTTGAAG	-0.018
CGTGCCGC	-0.0988
ACACTGAG	-0.091
ATTCATCG	0.116
TCATAAAA	0.0167
AAGCCCTC	-0.0392
CCGCGGGC	0.0691

Sequence	PBM E-score
CTAAATGA	0.0422
ATCAAGCC	-0.0172
AAAGTGGT	0.115
ACACATAC	0.0411
GGGAATAC	0.0953
GGATGCCA	-0.157
GGTCAGTA	-0.0707
TAGCACTA	0.0846
ACAGTCTA	-0.136
CCACTTGA	0.139
GCTATTAC	0.0669
ACCAACCT	-0.0401
CTAAACAA	-0.0966
ATCCCCCG	-0.269
CGTTAATC	0.137
CGAGGGGA	-0.111
AGGTAAAT	0.0494
CGGGGCTC	-0.2
GGTGATAA	0.0222
GAACCGAA	0.0343
GGGAAACC	0.168
AAATCCGG	0.0545
CATCACCC	-0.00304
GGAGCAAC	-0.0784
ACAGCGCT	0.0569

Sequence	PBM E-score
AAGTTGAC	0.00765
CAAAAGCA	-0.0485
AGCGAAGC	-0.181
GTGAAAAC	0.0992
CAGGAAAC	-0.0166
AACTTACG	0.148
TTAATCAA	0.166
GTACTATA	0.125
CCGAGACC	-0.0636
CGCAAGAA	0.101
CCGAGACG	-0.0491
AACTGCCG	-0.0171
GCAAGAAA	0.071
ATCGTATC	0.0617
AATACCGG	0.106
AGTCCTTG	-0.177
GGACGGAC	-0.126
GATGGCAA	0.154
TAAAGCTA	-0.196
AGTGCCCA	0.0274
CGCCGCTA	0.0609
AACGGTCA	-0.0092
GCAGGGCC	-0.191
CGACTTTC	0.00548
GCACAGTA	0.1

Sequence	PBM E-score
CATGGGAC	-0.0553
CTCACTAA	0.169
GCCAGATA	-0.0428
CTAATATC	0.235
ACCATCAA	-0.00606
CCGTCAGC	-0.0655
CCTATAGC	0.00418
ACGTCATA	0.223
AACTGCCA	-0.0699
AGCGCATA	0.138
CCTTCGGA	-0.15
CGCTCAGA	-0.185
AGCATACG	-0.0285
ATCCCACG	-0.0682
CTTAGGTC	-0.0156
ATTGTGAG	0.0594
AATAGACG	0.0669
CCTCGCAG	-0.233
ACGCCAAT	0.0961
CCCTCATC	-0.0205
CTGTAAAG	-0.206
CATGCGAA	0.0234
CAGTCCGA	-0.0341
CCGTGGAG	-0.135
CCTGCCCA	-0.0452

Sequence	PBM E-score
CAGGCCGG	-0.342
ACGAAATA	0.192
GCCGTACC	-0.17
AAGGCGTC	-0.257
TAGATACA	0.108
AACCACAG	0.00497
ACCATGCC	-0.124
GTCGAGGA	-0.24
GAAATATA	0.287
CAAGAGAG	-0.114
CGCCTGTC	-0.193
CAGTCAGG	-0.123
ATCGTCAG	-0.107
CTACTGCA	-0.28
ATCACTGA	-0.082
GACCTGGA	-0.208
AACCTCCT	-0.168
AAAGAATG	0.058
GCCCCACC	0.172
AGTGGCCC	-0.134
CAATCCGA	0.17
AGCCTAAC	-0.136
AGGTCATA	-0.00463
GGACTAAC	-0.232
CAGTCGAG	-0.24

Sequence	PBM E-score
ACATAAAT	0.28
CCGAGCTC	-0.033
AGCAACAT	0.0103
CCAGTGCA	-0.0977
AGAAGATC	0.0141
CCCCGGGA	0.0124
ACTACCCA	-0.0496
CCTGCGGC	-0.34
AAACCACC	-0.0113
GGCCCAGA	-0.304
AAGCCGAT	0.125
TTACAAAA	0.256
ATAATCAC	0.233
CCTCGTCC	-0.229
CCTCTGAA	-0.0862
GGTATGAC	-0.0978
ATATGTTC	0.139
CCGTGCTC	0.0121
TGAGATAA	0.251

An excerpt of these results, as comma-separated lines:
Sequence,PBM E-score
ACTACCCA,-0.0496
CCTGCGGC,-0.34
